Our source for the binding values is PMC9348664.

Protein sequences, listed by entry. Tags and fused reporters are not part of them.
UniProt Q16877: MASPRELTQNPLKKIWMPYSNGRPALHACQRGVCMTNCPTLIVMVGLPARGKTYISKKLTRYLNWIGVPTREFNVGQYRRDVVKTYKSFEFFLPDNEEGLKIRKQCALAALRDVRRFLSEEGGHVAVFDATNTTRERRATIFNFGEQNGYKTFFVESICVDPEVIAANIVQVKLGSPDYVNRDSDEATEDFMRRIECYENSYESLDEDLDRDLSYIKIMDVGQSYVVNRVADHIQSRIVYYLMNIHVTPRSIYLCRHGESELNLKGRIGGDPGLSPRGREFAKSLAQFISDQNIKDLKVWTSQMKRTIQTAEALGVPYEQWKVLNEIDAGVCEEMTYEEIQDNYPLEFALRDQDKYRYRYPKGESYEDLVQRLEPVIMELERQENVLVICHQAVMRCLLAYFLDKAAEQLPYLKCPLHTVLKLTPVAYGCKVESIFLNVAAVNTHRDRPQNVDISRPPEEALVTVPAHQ
UniProt O60725: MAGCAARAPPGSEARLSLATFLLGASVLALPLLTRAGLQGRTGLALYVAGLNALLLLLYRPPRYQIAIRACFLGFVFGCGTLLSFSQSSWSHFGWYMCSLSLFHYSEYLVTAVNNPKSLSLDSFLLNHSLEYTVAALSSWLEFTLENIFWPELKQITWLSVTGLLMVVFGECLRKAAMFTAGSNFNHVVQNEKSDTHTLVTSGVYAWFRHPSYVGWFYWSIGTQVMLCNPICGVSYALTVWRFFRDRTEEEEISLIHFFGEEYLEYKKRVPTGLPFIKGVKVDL

These are yes or no findings as the source states them, for the method shown. In cells and extracts the contact can be indirect. Here binding means that the protein was enriched with, or labelled near, the bait; the list need not be complete.

This experiment deals with FLAG-tagged human PFKFB4 (human) (UniProt Q16877). Description: affinity purification with mass spectrometry; FLAG-M2 magnetic beads on lysate of transfected MeWo cells (100 mM NaCl, 0.5% NP-40, 20 mM Tris-HCl pH 7.5, 5 mM MgCl2), overnight at 4°C; nanoESI-Orbitrap, Mascot; negative control V5-tagged PFKFB4.

With “isoprenylcystein carboxyl methyl transferase (ICMT), endogenous (from UniProt O60725 1-284) (enzyme)”, the binding entry is given as “binds”.
